Results deposited as PubChem BioAssay AID1671195 (Yale University, 2021)
Shown is one part, drawn at random, of about 22,000 reagents tested. Over the whole deposit, about 1,510 (6.9%) are marked active. 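Active includes knockdowns raising or lowering LDL uptake; positive z-scores mean more uptake, negative mean less.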

Purpose: 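Knockdowns that increase or decrease uptake of fluorescent LDL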 (primary screen)
Cell system: human Huh7 hepatoma cells
Reagent: siRNA pool against human genes, 18 nM
Duration: about 2 to 2.5 days of knockdown, then 8 h LDL uptake
Treatment: DiI-labelled LDL at 30 µg/ml for 8 h, in lipoprotein-deficient serum medium
Detection: 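Fluorescent LDL signal imaged in cells, scaled to the plate median, robust z-score for each replicate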
Direction: robust z-score: higher = more LDL uptake after knockdown
Active means: 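Active when two or more replicates show a robust z-score above 2 or below -2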

no.	gene	PubChem SID	robust z-score, replicate 1	robust z-score, replicate 2	robust z-score, replicate 3	Call
1	ESRP2	SID442897688	-0.712	-0.44	-0.0879	inactive
2	LOC401199 (retired record)	SID442888447	2.24	-1.61	1.53	inactive
3	REEP5	SID442904676	-1.89	-2.86	-0.65	inactive
4	MSR1	SID442888846	1.85	0.0373	0.0691	inactive
5	ZNHIT1	SID442890941	-0.0438	1.41	-0.313	inactive
6	FOXD1	SID442888684	0.895	-0.326	1.47	inactive
7	SHANK2-AS3	SID442885815	1.3	0.973	1.8	inactive
8	CHMP3	SID442894869	-1.21	0.511	0.368	inactive
9	PTCHD4	SID442888044	0.759	0.607	1.01	inactive
10	PTCHD4	SID442902982	-1.19	-1.22	-1.16	inactive
11	PMPCB	SID442903944	-1.49	-1.1	-1.73	inactive
12	TAFA1	SID442884091	1.62	2.16	2.18	active
13	FAM120AOS	SID442883158	2.99	5.69	4.4	active
14	LOC441002 (retired record)	SID442889827	0.684	0.289	0.538	inactive
15	TTLL1	SID442903857	-1.04	-1.58	-1.62	inactive
16	CPA3	SID442885756	1.56	1.45	1.14	inactive
17	NARF	SID442890925	0.285	0.659	0.114	inactive
18	BANF1	SID442903066	-1.03	-1.06	-1.53	inactive
19	STAC2	SID442893379	0.0335	0.0643	0.0781	inactive
20	TMX3	SID442887388	0.911	1.1	0.755	inactive
21	PLPPR2	SID442888051	0.543	0.739	1.09	inactive
22	SERAC1	SID442888520	0.719	0.855	0.542	inactive
23	TCEAL9	SID442890162	0.226	0.823	0.316	inactive
24	ATAD3C	SID442904760	-1.92	-1.82	-1.88	inactive
25	CENATAC	SID442900838	-0.61	-0.891	-0.939	inactive
26	SP140L	SID442900731	-0.892	-0.617	-0.889	inactive
27	SGPL1	SID442885459	1.58	2.01	0.923	inactive
28	PRKAR2A	SID442903454	-1.22	-1.16	-1.53	inactive
29	PLD2	SID442896378	-0.386	-0.211	-0.202	inactive
30	ITGA6	SID442899772	0.539	-1.31	-1.23	inactive
31	HBE1	SID442891108	2.96	0.416	-2.38	inactive
32	ZNF684	SID442885326	2.24	0.92	1.52	inactive
33	MTHFD2L	SID442898740	-0.286	-0.442	-0.868	inactive
34	NKAPD1	SID442884876	1.57	1.62	2.27	inactive
35	IDI1	SID442892254	0.325	0.18	0.0701	inactive
36	PHACTR3	SID442899576	-0.89	-0.517	-0.512	inactive
37	GRM7	SID442899645	-0.172	-1.19	-0.59	inactive
38	NSRP1	SID442903499	-1.21	-1.24	-1.49	inactive
39	LNCRI	SID442901290	-0.368	-1.42	-0.847	inactive
40	CCDC54	SID442883505	2.77	2.48	3.05	active
41	RFNG	SID442896969	-0.338	-0.258	-0.399	inactive
42	PTPMT1	SID442893027	-0.0363	-0.0212	0.342	inactive
43	CDC25B	SID442889270	0.535	0.832	0.389	inactive
44	LOC441364 (retired record)	SID442900842	-0.297	-1.21	-0.941	inactive
45	ZMPSTE24	SID442891399	0.29	-0.136	0.721	inactive
46	MTNAP1	SID442897084	-0.992	0.439	-0.482	inactive
47	CSNK1G1	SID442895400	0.363	-0.97	0.11	inactive
48	DEFB110	SID442896926	-0.539	-0.292	-0.152	inactive
49	DEFB110	SID442901216	-0.913	-0.932	-0.762	inactive
50	TLR1	SID442902689	-0.708	-0.949	-1.73	inactive

14 entries already listed, arranged by “robust z-score, replicate 2”, highest first:
gene	PubChem SID	robust z-score, replicate 1	robust z-score, replicate 2	robust z-score, replicate 3	Call
CCDC54	SID442883505	2.77	2.48	3.05	active
CDC25B	SID442889270	0.535	0.832	0.389	inactive
MTNAP1	SID442897084	-0.992	0.439	-0.482	inactive
PTPMT1	SID442893027	-0.0363	-0.0212	0.342	inactive
ZMPSTE24	SID442891399	0.29	-0.136	0.721	inactive
RFNG	SID442896969	-0.338	-0.258	-0.399	inactive
DEFB110	SID442896926	-0.539	-0.292	-0.152	inactive
DEFB110	SID442901216	-0.913	-0.932	-0.762	inactive
TLR1	SID442902689	-0.708	-0.949	-1.73	inactive
CSNK1G1	SID442895400	0.363	-0.97	0.11	inactive
GRM7	SID442899645	-0.172	-1.19	-0.59	inactive
LOC441364 (retired record)	SID442900842	-0.297	-1.21	-0.941	inactive
NSRP1	SID442903499	-1.21	-1.24	-1.49	inactive
LNCRI	SID442901290	-0.368	-1.42	-0.847	inactive

Continued.
no.	gene	PubChem SID	robust z-score, replicate 1	robust z-score, replicate 2	robust z-score, replicate 3	Call
51	GAST	SID442900663	-0.346	-1.16	-0.867	inactive
52	HMGCS1P1	SID442887178	0.449	0.967	1.49	inactive
53	BICRA	SID442889210	-1.12	1.35	1.55	inactive
54	MAEA	SID442888079	0.983	0.21	1.16	inactive
55	UPF2	SID442889610	0.509	0.791	0.303	inactive
56	PPFIA4	SID442898749	-0.203	-0.64	-0.756	inactive
57	SPX	SID442897800	-0.503	-0.411	-0.366	inactive
58	RPL23AP14	SID442884468	-2.1	-2.04	-2.39	active
59	ZNF611	SID442895038	-0.337	-0.0232	-0.0217	inactive
60	CCNG2	SID442898392	-0.882	0.0379	-0.636	inactive
61	HCLS1	SID442903866	-1.32	-1.5	-1.43	inactive
62	KDF1	SID442902099	-0.39	-0.992	-1.65	inactive
63	GPIHBP1	SID442901157	-0.943	-0.814	-0.818	inactive
64	LOC442428 (retired record)	SID442893142	0.231	-0.0734	0.0939	inactive
65	SLC39A14	SID442896472	-0.369	-0.0379	-0.422	inactive
66	SMU1	SID442889261	-0.534	2.07	0.22	inactive
67	AARD	SID442884642	2.5	1.88	1.83	inactive
68	RALGPS2	SID442884875	2.07	1.63	1.76	inactive
69	DTNB	SID442895285	-0.141	0.332	-0.651	inactive
70	WIPI2	SID442898052	-1.63	0.0502	0.208	inactive
71	FAM20B	SID442902876	-1.84	-0.716	-0.942	inactive
72	ACP1	SID442904687	-1.85	-1.84	-1.74	inactive
73	TMCO1	SID442902207	-0.399	-1.92	-0.769	inactive
74	GCOM1	SID442883255	3.73	2.99	4.09	active
75	CYP2B6	SID442885734	1.55	1.36	1.26	inactive
76	SRPK2	SID442890807	0.281	0.435	0.383	inactive
77	LOC391353 (retired record)	SID442897051	0.145	-0.67	-0.498	inactive
78	UBXN1	SID442904511	-0.889	-1.07	-3.08	inactive
79	SMIM21	SID442901669	-1.03	-0.856	-0.926	inactive
80	ANO7L1	SID442885735	1.71	1	1.45	inactive
81	GPSM2	SID442898295	-0.672	-0.531	-0.244	inactive
82	GPSM1	SID442897247	-0.342	-0.451	-0.298	inactive
83	AP1AR	SID442904679	-2.05	-1.78	-1.58	inactive
84	PCSK7	SID442896114	-0.871	0.563	-0.41	inactive
85	CFD	SID442902488	-0.815	-1.42	-1.02	inactive
86	CMTM4	SID442899936	-1.27	-0.0208	-0.778	inactive
87	PDE6D	SID442899278	-0.954	-0.154	-0.692	inactive
